# According to PubChem BioAssay AID2685 (National Center for Advancing Translational Sciences (NCATS), 2010):
# This is one part of the list. Shown are side measurements of this screen, not its main read-out; they come without a call. Most of these compounds were active or inconclusive in the main read-out, so they are no random draw. Potencies come from curve fits of mixed quality, noted in brackets.
# Test: qHTS Assay for Lipid Storage Modulators in Drosophila S3 Cells;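 on cell number change: cells counted by Cell Tracker Red CMTPX staining in the red channel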
# Details: BODIPY lipid droplet fluorescence, 18-24 h; for cell number change: measured here: cell count max response, cells fed with added oleic acid
# How it was run: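 Drosophila S3 cells got compounds at several concentrations plus oleic acid (400 uM solution). Laser-scanning cytometry with 488 nm excitation read lipid droplets at 500-530 nm and cells at 575-640 nm. Percent activity was relative to 20 uM Triacsin C.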
# [1] = measured here: cell number channel AC50, cells fed with added oleic acid
# [2] = measured here: lipid fluorescence (Fed channel) AC50, cells fed with added oleic acid
SMILES,cell number change,AC50 [1],AC50 [2]
NC(=O)COC(=O)c1cccc(S(=O)(=O)N2CCN(c3ccccc3)CC2)c1,-21.7%,,
CCOC(=O)C1(N(CC)CC)Sc2cc(C)ccc2NC1=O (stereo unspecified),-45.4%,"20.6 µM [falling, single point]","29.1 µM [falling, single point]"
COc1ccccc1C1CCN(Cc2ccc(Cl)c(Cl)c2)CC1,-48.2%,"16.4 µM [falling, single point]",
COCCN(CC(=O)Nc1ccccc1C(F)(F)F)C(=O)c1ccc(-n2cccn2)cc1,14.7%,,
Cn1c(CNC(=O)CNC(=O)Cc2ccc(Cl)cc2)cc(=O)n(C)c1=O,24.5%,,"29.1 µM [rising, single point]"
Cc1nnc(NC(=O)c2ccc(S(=O)(=O)C(F)F)cc2)s1,-14.4%,,"4.11 µM [falling, full curve, poor fit]"
CSc1cccc(NS(=O)(=O)c2cccs2)c1,,"0.651 µM [falling, partial curve, poor fit]","0.651 µM [falling, full curve]"
CC1CN(CCCCOc2ccc3ccccc3c2)CC(C)O1 (stereo unspecified),-61.2%,"29.1 µM [falling, single point]",
O=C(CNC(=O)N1CC(=O)Nc2ccccc21)NCCc1c[nH]c2ccccc12,16.7%,,
Cc1cccc(C(=O)NNC(=O)C23CC4CC(CC(C4)C2)C3)c1O,-0.833%,,"0.461 µM [falling, full curve]"
Cc1cc(C)cc(Nc2ncnc3nc[nH]c23)c1,29.7%,,"29.1 µM [rising, single point]"
Cc1cc(C)c(NC(=O)COC(=O)c2cccc3c2C(=O)c2ccccc2C3=O)c(C)c1,7.01%,,"6.51 µM [rising, single point]"
Cc1ccc(NC(=O)c2oc3ccc(S(=O)(=O)N4CCC5(CC4)OCCO5)cc3c2C)cc1C,9.32%,,"14.6 µM [rising, partial curve, poor fit]"
CC(=O)Nc1ccc(NC(=O)Cc2ccc(-c3ccccc3)cc2)cc1,-10.6%,,
O=C(NC1(O)C(=O)c2ccccc2C1=O)c1c(Cl)cccc1Cl,-15.6%,,"0.0058 µM [falling, full curve, poor fit]"
COc1ccc(/C=C(/NC(=O)c2cccs2)C(=O)Nc2ccc(C)cc2)cc1OC,-82.9%,"2.31 µM [falling, full curve]","0.326 µM [falling, full curve]"
Cc1cccc(C)c1OCCCCCNCCO,-12.3%,,
CC(=O)c1cccc(NC(=S)NC(=O)c2cncc(Br)c2)c1,-22%,,"25.9 µM [falling, partial curve, poor fit]"
O=C(COc1ccccc1)N1CCN(c2nnc(-c3ccccc3)c3ccccc23)CC1,-2.35%,,"3.26 µM [rising, full curve, poor fit]"
Cc1ccc(C(=O)OCC(=O)Nc2ccccc2C(F)(F)F)cc1S(=O)(=O)N1CCCCC1,221%,,
CCOC(CCNC(=O)c1cn(CC(C)C)c(=O)c2c1c1ccccc1n2C)OCC,-30.5%,"0.0651 µM [falling, full curve, poor fit]",

SMILES,cell number change,AC50 [1],AC50 [2]
O=C(Nc1ccccc1N1CCCC1)c1ccc(Cl)c(S(=O)(=O)N2CCOCC2)c1,27.5%,,"29.1 µM [rising, single point]"
CCCCCCc1ccc(OCC(=O)O)cc1OCC(=O)O,-1.23%,,"0.00651 µM [falling, full curve, poor fit]"
O=C(CCC(=O)N1CCOc2ccccc21)Nc1ccccc1Br,-6.05%,,"0.00461 µM [rising, full curve, poor fit]"
S=c1[nH]nc(-c2ccncc2)n1Cc1ccccc1,-15.3%,,
CC(=O)Nc1ccc(NC(=O)CC(c2ccccc2)c2ccccc2)cc1,-18.4%,"0.00461 µM [falling, full curve, poor fit]",
Cc1sc2ncn(CC(=O)NCC3COc4ccccc4O3)c(=O)c2c1S(=O)(=O)N1CCOCC1 (stereo unspecified),43.7%,"2.31 µM [falling, partial curve]","2.59 µM [falling, partial curve]"
COc1ccc(C(=O)NC(C(=O)NCCc2ccc3c(c2)OCCO3)C(C)C)cc1 (stereo unspecified),,,"3.26 µM [rising, single point]"
CC(C)(C)OC(=O)NCc1ccc(CNC(=O)c2nc[nH]c2C(=O)N2CCN(c3ccccc3)CC2)cc1,-37.5%,"20.6 µM [falling, partial curve]","4.11 µM [falling, partial curve]"
COc1ccc(Cc2nc3ccc(C(=O)NCCc4ccncc4)cc3o2)cc1OC,-54.2%,"29.1 µM [falling, single point]","9.2 µM [falling, partial curve, poor fit]"
COc1ccc(NC(=O)/C(N=Nc2cc(S(=O)(=O)Nc3ccc(OC)cc3)ccc2OC)=C(\C)O)cc1,-21.5%,,
Cc1cc(NC(=O)CSc2nc(C3CC3)nc3sc(C)c(C)c23)no1,-18.4%,"0.259 µM [rising, partial curve, poor fit]","0.58 µM [rising, single point]"
Cc1cccc(Cn2c(C(=O)OC(C)C)cc3c2ccn3C)c1,-42.7%,"29.1 µM [falling, single point]",
Cc1cc(NC(=O)CCC(=O)N(CCC(C)C)CC(=O)NCC2CCCO2)no1 (stereo unspecified),,"0.517 µM [falling, partial curve]",
Cc1ccc(S(=O)(=O)ON=C2CCN(S(=O)(=O)c3ccccc3)CC2)cc1,14.5%,,"20.6 µM [rising, partial curve, poor fit]"
NC(=O)CSc1nnc(NC(=O)c2ccc(Br)o2)s1,,,"0.116 µM [rising, single point]"
COc1ccc(N2CCN(c3nc(NC(C)(C)C)nc(N4CCCCC4)n3)CC2)cc1,-128%,,"29.1 µM [falling, single point]"
O=C(CSc1nnc2c(n1)[nH]c1ccccc12)Nc1ccc2c(c1)OCO2,35.6%,"0.231 µM [rising, full curve]",
Nc1nc(-c2ccccc2)[nH]c(=O)c1N=O,9.04%,,
C/C(=N/NC(=O)CNC(=O)/C=C/c1ccccc1)c1ccco1,-20.3%,,"20.6 µM [falling, single point]"
O=c1c(-c2nc3ccccc3s2)cccn1Cc1ccc(Cl)cc1,15.2%,,
CC(C)N(Cc1ccccc1)C(=O)COC(=O)c1ccc(O)cc1,-15%,,"1.64 µM [falling, partial curve]"

# Structures shown so far with an aryl thioether with sulfur outside any ring (four):
SMILES,cell number change,AC50 [1],AC50 [2]
CSc1cccc(NS(=O)(=O)c2cccs2)c1,,"0.651 µM [falling, partial curve, poor fit]","0.651 µM [falling, full curve]"
Cc1cc(NC(=O)CSc2nc(C3CC3)nc3sc(C)c(C)c23)no1,-18.4%,"0.259 µM [rising, partial curve, poor fit]","0.58 µM [rising, single point]"
NC(=O)CSc1nnc(NC(=O)c2ccc(Br)o2)s1,,,"0.116 µM [rising, single point]"
O=C(CSc1nnc2c(n1)[nH]c1ccccc12)Nc1ccc2c(c1)OCO2,35.6%,"0.231 µM [rising, full curve]",

# Later entries.

SMILES,cell number change,AC50 [1],AC50 [2]
O=C(CSc1nnc(-c2cnccn2)n1Cc1ccco1)Nc1ccc(Br)cc1,49.2%,"23.1 µM [rising, single point]",
CCOC(=O)C1(C)/C(=N/Nc2cccc(Cl)c2)C(=O)C(=O)N1c1ccccc1 (stereo unspecified),12%,,"0.58 µM [rising, single point]"
OC(CN1CCOCC1)C12CC3CC(CC(C3)C1)C2 (stereo unspecified),-23.6%,,"29.1 µM [falling, single point]"
C=CCNC(=O)c1ccccc1NC(=O)C1CCN(S(=O)(=O)c2ccc(SC)cc2)CC1,-15.8%,,
Cc1cc(C)cc(OCC(=O)N(C)CC(=O)Nc2ccc(N3CCOCC3)cc2)c1,-11.3%,,
C=CCn1c(SCC(=O)c2[nH]c(C)c(C(=O)OCC)c2C)nc2scc(-c3ccc(OC)c(OC)c3)c2c1=O,-17.6%,"3.66 µM [falling, single point]",
Cc1ccc(C(=O)c2oc3ccccc3c2N)cc1,-42.2%,"14.6 µM [falling, partial curve]","14.6 µM [falling, partial curve]"
COc1cc(OC)cc(C(=O)NC(=S)NNC(=O)[C@H]2C[C@@H]2c2ccccc2)c1,20.6%,,"4.61 µM [rising, full curve, poor fit]"
CCN(CC)C(=O)C1(P(=O)(c2ccccc2)c2ccccc2)CCC1,10.3%,,"1.64 µM [falling, partial curve]"
COc1ccc(Cc2nnc(SCC(=O)N(c3ccccc3)C(C)C)n(N)c2=O)cc1,66.7%,"8.2 µM [rising, partial curve, poor fit]",
O=C(NCc1ccccc1)C1CCCN(S(=O)(=O)c2cccc3nsnc23)C1 (stereo unspecified),25.8%,,"0.058 µM [falling, full curve, poor fit]"
O=C1COc2ccc(C(=O)c3ccccc3C(=O)NCc3ccco3)cc2N1,23.6%,,"29.1 µM [rising, single point]"
BrC(=C\c1ccccc1)/C=N/Nc1nc2ccccc2[nH]1,32.4%,"6.51 µM [rising, partial curve]","23.1 µM [rising, single point]"
COc1ccc(C(=O)c2oc3nc(C)cc(C)c3c2N)cc1,-6.35%,,"0.326 µM [rising, full curve]"
CCC1CCCCN1CC(=O)Nc1cc(C)nn1-c1nc(C)cc(C)n1 (stereo unspecified),77.5%,"29.1 µM [rising, single point]",
CN1CCN(S(=O)(=O)c2ccc(CNC(=O)c3ccccc3)s2)CC1,-13.9%,,"6.51 µM [rising, partial curve, poor fit]"
CCOc1ccccc1NC(=O)c1ccc(S(=O)(=O)N2CCOCC2)cc1,32.8%,"2.91 µM [rising, full curve]","2.91 µM [rising, single point]"
CCN(CC)S(=O)(=O)c1ccc(N2CCCC2)c(NC(=O)c2nn(C)c(=O)c3ccccc23)c1,14.8%,,
CC(C)(C#N)NC(=O)C(=O)c1c(-c2ccccc2)cc2ccccn12,-45%,"0.259 µM [falling, full curve, poor fit]","0.82 µM [falling, full curve]"
